PubChem BioAssay AID1259261 – Sanger Institute, 2017

Purpose: 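Kinase knock-downs that kill colorectal cancer cells or boost targeted drugs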 (primary screen)
Cells: HCC2998 human colorectal cancer cells
Reagents: siRNA pool against human genes
Treatment: anchor drugs BYL719 1 µM, cetuximab 5 µg/ml or trametinib 10 nM, each compared with DMSO vehicle
Measurement: 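Viability as fraction of non-targeting control plus robust z-score without drug; synergy scores compare knock-down plus drug against each alone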
Reading the numbers: viability z-score, knock-down alone: higher = more viable cells than controls
Rule for the call: 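a knock-down is called essential if its robust z-score without drug is under -3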
Meaning of the calls: active = essential; inactive = no change
The whole screen tested 794 reagents; shown is a part drawn at random. Of all reagents, 10 (1.3%) were called active. 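Calls reflect knock-down alone without drug; synergy scores with BYL719, cetuximab or trametinib do not affect calls.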 Not all columns of the deposit are shown. Not stated in the record: the amount of reagent, the time to read-out.

AGK — viability z-score, knock-down alone: 1.16; Call: inactive
DLG2 — viability z-score, knock-down alone: 0.523; Call: inactive
DCLK3 — viability z-score, knock-down alone: 0.077; Call: inactive
AMER1 — viability z-score, knock-down alone: -0.386; Call: inactive
GATA3 — viability z-score, knock-down alone: 0.0589; Call: inactive
SGK2 — viability z-score, knock-down alone: 0.0836; Call: inactive
MAGI1 — viability z-score, knock-down alone: -1.05; Call: inactive
DGKB — viability z-score, knock-down alone: -1.93; Call: inactive
PRKACA — viability z-score, knock-down alone: 0.321; Call: inactive
ROR1 — viability z-score, knock-down alone: 0.375; Call: inactive
WT1 — viability z-score, knock-down alone: 0.00829; Call: inactive
CAMK1 — viability z-score, knock-down alone: 0.117; Call: inactive
CKMT2 — viability z-score, knock-down alone: 0.475; Call: inactive
RIOK3 — viability z-score, knock-down alone: 1.17; Call: inactive
SRPK1 — viability z-score, knock-down alone: 0.214; Call: inactive
PAK4 — viability z-score, knock-down alone: -0.878; Call: inactive
NEK10 — viability z-score, knock-down alone: 0.702; Call: inactive
SRC — viability z-score, knock-down alone: -0.704; Call: inactive
FGFR1 — viability z-score, knock-down alone: 1.21; Call: inactive
MGA — viability z-score, knock-down alone: -0.722; Call: inactive
STAG2 — viability z-score, knock-down alone: 1.13; Call: inactive
ALPK1 — viability z-score, knock-down alone: 0.159; Call: inactive

Targets listed so far whose gene name starts with P or p:
PRKACA — viability z-score, knock-down alone: 0.321; Call: inactive
PAK4 — viability z-score, knock-down alone: -0.878; Call: inactive

More reagents:
CASP8 — viability z-score, knock-down alone: 0.147; Call: inactive
PIM3 — viability z-score, knock-down alone: 0.026; Call: inactive
STK17A — viability z-score, knock-down alone: -0.689; Call: inactive
NEK7 — viability z-score, knock-down alone: 0.762; Call: inactive
DYRK4 — viability z-score, knock-down alone: -1.84; Call: inactive
RPS6KL1 — viability z-score, knock-down alone: -0.404; Call: inactive
TLK2 — viability z-score, knock-down alone: 1.15; Call: inactive
FLT1 — viability z-score, knock-down alone: 0.946; Call: inactive
CDK4 — viability z-score, knock-down alone: 0.95; Call: inactive
ITPKA — viability z-score, knock-down alone: 1.21; Call: inactive
CSNK2A1 — viability z-score, knock-down alone: 1.21; Call: inactive
CSK — viability z-score, knock-down alone: 1.21; Call: inactive
PRKG2 — viability z-score, knock-down alone: 0.484; Call: inactive
ULK3 — viability z-score, knock-down alone: -0.518; Call: inactive
